# Source: PubChem BioAssay AID1347075 (National Center for Advancing Translational Sciences (NCATS), 2019)
# Hit rate of the full screen: of about 400,000 compounds, about 5,500 (1.4%) were called active. Inconclusive means that the source gave no clear call. Such entries were picked first, then a sample of the others. Calls come from the whole dose curve; as a rule, active = well fitted cell-killing curve with a large enough effect; inconclusive = small, poorly fitted or top-dose-only effect, or effect the other way; inactive = flat fitted curve, though single readings scatter. Potencies of inconclusive entries are doubtful fits and often do not repeat.
# Experiment: qHTS assay for MDR1-selective chemotherapeutics: Primary screen using the parental adenocarcinoma cell KB-3-1; note: nearly all actives have a fitted effect of over 60% in size
# Conditions: KB-3-1 viability, CellTiter-Glo ATP luminescence, 72 h; activity change, negative = cytotoxic: at 46.1 µM (top of the series)
# In short: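 Multi-concentration cytotoxicity screen in KB-3-1 cells grown in DMEM lacking phenol red with 10% FBS. After 72 h at 37 °C with compound, ATP-dependent luminescence was recorded.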
# % is set by controls: 0 for no effect and ±100 for the full control effect; potency is the fitted concentration of half-maximal effect.
SMILES,"activity change, negative = cytotoxic",Potency
Cc1ccc(NC(=O)Cc2ccc3c(c2)CCCC3)cc1C,inactive: -8.6%,
C#CCSc1nccc(-c2nn(-c3ccc(C)cc3)ccc2=O)n1,inactive: -18.4%,
CC1(C)CC(=O)c2sc(NC(=O)c3cccs3)nc2C1,,"inconclusive: 16.4 µM [cytotoxic, partial curve, poor fit]"
COc1cccc(CNc2ncnc3cc(Cl)ccc23)c1,inactive: 1.84%,
O=C1Cc2c(-c3ccccc3)cc(-c3cccc(Cl)c3)nc2-c2ccccc2N1,,"inconclusive: 29.1 µM [cytotoxic, single point]"
CN(C)S(=O)(=O)N(CC(=O)N1CCN(c2ccccc2)CC1)c1ccccc1,inactive: 3.05%,
COCCOC(=O)c1c(NC(=O)COC(=O)c2ccc(C)o2)sc(C(N)=O)c1C,inactive: 0.0831%,
CCOC(=O)C(C)Oc1cccc2c(=O)n(CC(=O)NCc3ccc4c(c3)OCO4)ccc12 (stereo unspecified),,active: 6.51 µM
COc1cccc(S(=O)(=O)Nc2ccc3sc(C)nc3c2)c1,,"inconclusive: 29.1 µM [cytotoxic, single point]"
CC12CCC(=O)N1C(C(=O)N1CCN(c3ccc([N+](=O)[O-])cc3)CC1)CS2 (stereo unspecified),inactive: 7.21%,
CC(C)SC1=NC(C)(C)C=C(/C=C/c2c(Cl)cccc2Cl)N1,,active: 14.6 µM
C=CCN(C(=O)Nc1ccc(OC)cc1)c1nnc(-c2ccncc2)s1,inactive: 14.2%,
O=C(CN1CCN(S(=O)(=O)c2ccc(Cl)s2)CC1)NCc1ccc(Cl)cc1,,"inconclusive: 29.1 µM [cytotoxic, single point]"
CN(C)c1ccc(C(=O)N/N=C/c2cc(Br)cc(Br)c2O)cc1,,"inconclusive: 23.1 µM [cytotoxic, single point]"
CN(CC(=O)Nc1ccccc1Cl)C(=O)CN1C(=O)NC(c2ccccc2)(c2ccccc2)C1=O,inactive: 2.85%,
Cc1ccc(-c2nnc(-c3ccccc3)c(N3CCOCC3)n2)cc1,,"inconclusive: 29.1 µM [cytotoxic, single point]"
CCOC(=O)C(C)Oc1cccc2c(=O)n(CC(=O)N3CCCc4ccccc43)ccc12 (stereo unspecified),inactive: 1.41%,
Cc1ccc(N(C)S(=O)(=O)c2c(C)noc2/C=C/N(C)C)cc1,inconclusive: 0.203%,
CSc1ccc(/C=N/NC(=O)c2cccc(Cl)c2)cc1,,"inconclusive: 25.9 µM [cytotoxic, single point]"
Cc1ccc(C(=O)Nc2ccc(C(=O)N/N=C/c3ccc(C)o3)cc2)cc1,,"inconclusive: 20.6 µM [cytotoxic, single point]"
COc1cccc(NC(=O)c2oc3ccccc3c2NC(C)=O)c1,,"inconclusive: 1.46 µM [rising, full curve]"
COc1ccc(CC(Cc2ccc(OC)c(OC)c2)NC=O)cc1OC,inactive: 2.27%,
Cc1ccc(S(=O)(=O)Nc2ccc(S(=O)(=O)NCC3CCCO3)cc2)cc1 (stereo unspecified),,"inconclusive: 25.9 µM [rising, partial curve]"
Cc1ccnc(NC(=O)CN2C(=O)c3ccccc3C2=O)c1,,"inconclusive: 0.0206 µM [rising, full curve, poor fit]"
NC(=O)COc1ccc(S(=O)(=O)N2CCCC2)cc1,,"inconclusive: 6.51 µM [rising, partial curve]"
COc1ccc(NC(=O)c2sc(=O)n(Cc3cccc(C(F)(F)F)c3)c2C)cc1OC,,active: 8.2 µM

# Quoted at random: 2 entries already listed
SMILES,"activity change, negative = cytotoxic",Potency
COc1ccc(CC(Cc2ccc(OC)c(OC)c2)NC=O)cc1OC,inactive: 2.27%,
CSc1ccc(/C=N/NC(=O)c2cccc(Cl)c2)cc1,,"inconclusive: 25.9 µM [cytotoxic, single point]"

# Further structures follow:

SMILES,"activity change, negative = cytotoxic",Potency
CC(C)[C@H]1COCCS(=O)(=O)N1Cc1ccccc1-c1ccccc1,inactive: -0.759%,
Cc1ccc(C)c(N(C)C(=O)CCNC(=O)Cn2cnc3ccccc3c2=O)c1,inactive: 4.33%,
CC(C)(C)CC(C)(C)NC(=S)NC1CCN(Cc2ccccc2)CC1,,"inconclusive: 23.1 µM [cytotoxic, single point]"
COc1ccc(-c2nc3ccccc3[nH]2)cc1,,"inconclusive: 11.6 µM [cytotoxic, partial curve]"
COc1cc(CN2CCCC(CO)(Cc3ccccc3C)C2)cc2c1OCO2 (stereo unspecified),,"inconclusive: 29.1 µM [cytotoxic, single point]"
COc1cc2nc(N3CCCN(C)CC3)nc(NC3CCN(Cc4ccccc4)CC3)c2cc1OC,,"inconclusive: 16.4 µM [cytotoxic, partial curve, poor fit]"
Cc1ccc(C2(C(F)(F)F)NC(=O)N3CCN=C3S2)cc1 (stereo unspecified),,"inconclusive: 23.1 µM [cytotoxic, single point]"
CCC1(C(=O)NC(=Nc2ccccc2)Nc2ccccc2)CCOC1=O (stereo unspecified),inactive: 0%,
Cc1cc(C)nc(SCC(=O)NN=Cc2ccc(C)o2)n1,inactive: 0%,
CC(=O)Oc1ccc2c(=O)c(Oc3ccccc3)coc2c1OC(C)=O,,"inconclusive: 29.1 µM [cytotoxic, single point]"
CC(Oc1ccc(Br)cc1)C(=O)Nc1nc(-c2ccccn2)cs1 (stereo unspecified),,"inconclusive: 29.1 µM [cytotoxic, single point]"
CCOc1ccc(S(=O)(=O)NCc2cccnc2)cc1C,inactive: 9.24%,
O=C(c1ccco1)N1CCN(S(=O)(=O)Cc2ccccc2Cl)CC1,inconclusive: 4.2%,
Brc1ccc2c(c1)C(c1cccnc1)=NNC(c1cccs1)=N2,,"inconclusive: 11.6 µM [cytotoxic, partial curve, poor fit]"
O=c1c2cc([N+](=O)[O-])ccc2nc2n1CCC2,inconclusive: 17.6%,
CSCCC(NC(=O)c1ccccc1Br)C(=O)N1CCCCCCC1 (stereo unspecified),inactive: -2.27%,
O=S(=O)(c1cccc2cnccc12)N1CCCNCC1,,"inconclusive: 29.1 µM [cytotoxic, single point]"
O=C(c1ccc(F)cc1)N1CCN(Cc2ccccc2)CC1,inactive: -9.06%,
CC(C)SC1=NC(C)(C)C=C(/C=C/c2ccc(Cl)cc2Cl)N1,,"inconclusive: 20.6 µM [cytotoxic, single point]"
CC(=O)c1ccccc1OC(=O)COc1ccc([N+](=O)[O-])cc1,inactive: -7.58%,
C/C(=N\NC(=O)c1ccc(Cl)c(Cl)c1)c1ccccn1,,"inconclusive: 5.8 µM [cytotoxic, partial curve, poor fit]"
Nc1cc2[nH]c(=O)c3ccccc3c2cc1[N+](=O)[O-],,"inconclusive: 13 µM [rising, partial curve, poor fit]"
COc1ccc(C(=O)CN2CC(C)SC2=Nc2ccc(Cl)cc2)cc1 (stereo unspecified),,"inconclusive: 5.8 µM [cytotoxic, partial curve]"
CN(C)C(=O)C1Cc2ccccc2CN1S(=O)(=O)c1cccs1 (stereo unspecified),,"inconclusive: 2.31 µM [rising, full curve, poor fit]"
COCCn1c(Sc2ccccc2)nc2c1c(=O)[nH]c(=O)n2C,,"inconclusive: 32.6 µM [cytotoxic, single point]"
COc1ccc(CNC(=O)c2nc(S(=O)(=O)Cc3ccccc3)ncc2Cl)cc1,,"inconclusive: 29.1 µM [cytotoxic, single point]"

# Nothing new here: 2 of the compounds above.
SMILES,"activity change, negative = cytotoxic",Potency
CC(Oc1ccc(Br)cc1)C(=O)Nc1nc(-c2ccccn2)cs1 (stereo unspecified),,"inconclusive: 29.1 µM [cytotoxic, single point]"
CCOc1ccc(S(=O)(=O)NCc2cccnc2)cc1C,inactive: 9.24%,

# The listing continues:

SMILES,"activity change, negative = cytotoxic",Potency
COc1ccccc1N(C)S(=O)(=O)c1ccc(C(=O)Nc2cccc(Br)c2)cc1,,"inconclusive: 29.1 µM [cytotoxic, single point]"
Cc1ccc(C(c2sc3nc(C)nn3c2O)N2CCN(CCO)CC2)cc1 (stereo unspecified),inconclusive: 5.74%,
COc1cc2c(cc1OC)CN(C(=O)c1ccc3nc[nH]c3c1)CC2,,"inconclusive: 3.26 µM [cytotoxic, partial curve, poor fit]"
COc1ccccc1NC(=O)Nc1nc(C(C)(C)C)cs1,,"inconclusive: 29.1 µM [cytotoxic, single point]"
Cc1ccccc1NC(=S)N(Cc1ccccn1)Cc1ccccc1Cl,inactive: 8.52%,
Cc1ccsc1C(=O)NCCC(c1ccccc1)c1ccccc1,inactive: -15.1%,
CCCc1cc(=O)[nH]c(SCc2nc3ccc([N+](=O)[O-])cc3[nH]2)n1,,"inconclusive: 29.1 µM [cytotoxic, single point]"
O=C(Nc1cccc(S(=O)(=O)NCc2ccco2)c1)c1cc(-c2ccccc2)nc2ccccc12,,"inconclusive: 23.1 µM [cytotoxic, single point]"
Cc1ccc(-n2c3c(cc(C(=O)NCc4ccco4)c2=O)C(=O)CCC3)cc1,inactive: 6.75%,
O=C(Nc1ccccn1)c1sc2ccc([N+](=O)[O-])cc2c1Cl,,"inconclusive: 23.1 µM [rising, single point]"
CCOc1cccc(Nc2ccc([N+](=O)[O-])cn2)c1,inactive: 2.97%,
O=C1CCN(Cc2ccco2)C(=S)N1,,"inconclusive: 20.6 µM [rising, single point]"
Cc1c(CCO)sc[n+]1CC(=O)c1ccccc1,inactive: 19.4%,
CCOC(=O)CSc1nc2sc(C)c(C)c2c(=O)n1C,inactive: 3.58%,
Cc1ccn2c(Nc3ccc4c(c3)OCO4)c(-c3ccccn3)nc2c1,,"inconclusive: 18.4 µM [cytotoxic, single point]"
COc1ccc2[nH]c(-c3ccc(C)cc3)cc(=O)c2c1,,active: 9.2 µM
c1ccc(-n2ncc3c(N4CCN(CCOc5cccc6ccccc56)CC4)ncnc32)cc1,,"inconclusive: 16.4 µM [cytotoxic, partial curve]"
Cc1ccsc1C1Nc2ccc3ncccc3c2C2=C1C(=O)CC(C)(C)C2 (stereo unspecified),inactive: 16.2%,
Cc1ccc(NC2=NC3(CCCCC3)N=C(N)N2)c(C)c1,,active: 7.31 µM
O=C(c1cccs1)N1C[C@@H](O)[C@H](n2cc(-c3ccc(F)cc3)nn2)C[C@@H]1c1ccccc1,,"inconclusive: 18.4 µM [cytotoxic, partial curve, poor fit]"
O=C(COC(=O)c1cccc(C(F)(F)F)c1)NC(=O)NC1CCCC1,inactive: 7.09%,
Clc1ccc(Nc2nc(NCc3ccco3)nc3nccnc23)cc1,,"inconclusive: 25.9 µM [rising, single point]"
CC(Sc1ccc2nnc(-c3ccc(F)cc3)n2n1)C(=O)O (stereo unspecified),inactive: -20.4%,
COc1cccc(NC(=O)Nc2ccc3c(c2)N(C)C(=O)CS3)c1,,"inconclusive: 18.4 µM [cytotoxic, single point]"
